PubChem BioAssay AID493246, Drosophila RNAi Screening Center – 2011
Assay: 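Genes fly cells need to grow and stay alive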 (primary screen). Cells: Drosophila Kc and S2R+ cells. Knock-down reagent: long dsRNA against Drosophila genes. Measurement: 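Cell number per well after knock-down, printed as raw plate values; calls were based on per-plate z-scores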. Reading the numbers: Kc cell number and S2R+ cell number: higher = more cells remaining. Call rule: 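Active when the per-plate z-score of cell number is 3 or more in the direction of fewer cells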.
In all, the deposit lists about 21,000 reagents; below is a random part of those with a known target gene and a result. Of all reagents, 429 (2%) were called active. 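Values are raw and not normalised between plates; calls rest on per-plate z-scores that were not deposited.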 Unmarked entries are inactive. The numbers tell different reagents against one gene apart. Names joined by + are all predicted targets of the reagent. No sequences are given here. Not given: the amount of reagent, the time to read-out.

gene,dsRNA no.,"Kc cell number, rep 1","Kc cell number, rep 2","S2R+ cell number, rep 1","S2R+ cell number, rep 2"
nahoda,1,5.49e5,,8.78e5,
nahoda,2,1.49e6,1.58e6,1.23e6,1.29e6
CG4650,1,1.51e6,1.59e6,1.21e6,1.34e6
CG42262 (retired record),1,1.13e6,1.46e6,1.00e6,1.06e6
CG42262 (retired record),2,1.79e6,1.67e6,1.10e6,1.22e6
CG10862,1,1.36e6,1.27e6,9.79e5,1.24e6
ems,1,1.23e6,1.29e6,1.22e6,1.37e6
Alp9,1,1.41e6,1.45e6,1.25e6,9.77e5
CG8136,1,1.35e6,1.57e6,1.20e6,1.30e6
SdhD,1,1.45e6,1.59e6,8.94e5,1.03e6
LRP1,1,1.46e6,1.51e6,1.23e6,1.40e6
Ifrd1,1,1.56e6,1.54e6,1.13e6,1.28e6
Ifrd1,2,1.54e6,1.53e6,1.12e6,1.32e6
CG14834,1,1.58e6,1.46e6,1.17e6,1.25e6
Schip1,1,1.87e6,1.94e6,1.23e6,1.39e6
CG34406 (retired record),1,1.25e6,1.30e6,8.92e5,1.03e6
CG34406 (retired record),2,1.62e6,1.54e6,1.21e6,1.37e6
nero,1,4.91e5,,7.52e5,
tplus3a + tplus3b,1,4.82e5,,8.11e5,
p120ctn,1,1.37e6,1.29e6,1.01e6,1.25e6
p115,1,1.46e6,1.44e6,1.01e6,1.17e6
insv,1,1.62e6,1.64e6,1.07e6,1.21e6
CG16959,1,1.40e6,1.45e6,1.28e6,1.26e6
Sec61beta,1,1.60e6,1.78e6,1.03e6,1.18e6
CG43867,1,1.29e6,1.45e6,1.17e6,1.11e6
CG43867,2,1.62e6,1.61e6,1.03e6,1.12e6
CG43867,3,1.66e6,1.70e6,9.82e5,1.15e6
CG43867,4,1.44e6,1.45e6,1.03e6,1.06e6
CG16965,1,1.61e6,1.66e6,1.35e6,1.48e6

The list goes on; the last 4 above are carried over.
gene,dsRNA no.,"Kc cell number, rep 1","Kc cell number, rep 2","S2R+ cell number, rep 1","S2R+ cell number, rep 2"
CG43867,2,1.62e6,1.61e6,1.03e6,1.12e6
CG43867,3,1.66e6,1.70e6,9.82e5,1.15e6
CG43867,4,1.44e6,1.45e6,1.03e6,1.06e6
CG16965,1,1.61e6,1.66e6,1.35e6,1.48e6
CG17549,1,1.44e6,1.49e6,1.38e6,1.41e6
CG1688,1,1.40e6,1.39e6,9.13e5,1.01e6
Non2,1,1.35e6,1.43e6,1.01e6,9.37e5
Acox57D-p,1,1.39e6,1.47e6,1.19e6,1.27e6
apt,1,1.28e6,1.48e6,7.28e5,7.41e5
Ugt49B2,1,1.47e6,1.53e6,1.01e6,9.70e5
SkpE,1,1.54e6,1.55e6,1.05e6,1.14e6
CG1896,1,4.89e5,,7.35e5,
CG6244,1,1.40e6,1.56e6,1.22e6,1.33e6
CG10286,1,1.47e6,1.61e6,1.38e6,1.45e6
resilin,1,5.37e5,,7.61e5,
resilin,2,1.72e6,1.76e6,1.37e6,1.54e6
P5cr,1,1.39e6,1.36e6,1.09e6,1.20e6
Bet5,1,1.44e6,1.43e6,1.01e6,1.16e6
Mtp,1,1.32e6,1.37e6,1.04e6,1.02e6
pip,1,1.36e6,1.49e6,1.22e6,1.34e6
CG7102,1,1.35e6,1.34e6,5.65e5,6.64e5
CG7102,2,1.80e6,1.84e6,1.15e6,1.30e6
CG3492,1,1.40e6,1.46e6,1.15e6,1.24e6
CNPYb,1,1.59e6,1.61e6,1.24e6,1.35e6
Ir76b,1,1.58e6,1.57e6,1.35e6,1.41e6
CG5681,1,1.62e6,1.63e6,1.32e6,1.45e6
Samuel,1,1.42e6,1.62e6,1.07e6,1.17e6
Samuel,2,1.34e6 (active),1.59e6,7.40e5,8.41e5
Samuel,3,1.73e6,1.74e6,1.20e6,1.31e6
Try29F,1,1.58e6,1.78e6,1.36e6,1.54e6
Orcokinin,1,1.67e6,1.70e6,1.32e6,1.43e6
Ufsp1,1,1.41e6,1.48e6,9.71e5,1.06e6
CG17896,1,5.59e5,,9.13e5,
Dis3,1,1.29e6,1.40e6,8.07e5,8.77e5
xmas,1,1.62e6,1.67e6,9.84e5,1.19e6
CG6426,1,1.65e6,1.53e6,1.23e6,1.35e6
Galphao,1,1.50e6,1.56e6,1.22e6,1.23e6
CG10165,1,1.30e6,1.39e6,1.31e6,1.36e6
CG12728,1,5.83e5,,9.00e5,
gpp,1,1.57e6,1.61e6,1.10e6,1.35e6
gpp,2,1.58e6,1.72e6,1.04e6,1.20e6
Zasp67,1,1.58e6,1.77e6,1.27e6,1.35e6
Cnot4,1,1.64e6,1.67e6,1.09e6,1.20e6
Cnot4,2,1.58e6,1.63e6,1.01e6,1.16e6
Sec71,1,1.47e6,1.54e6,1.13e6,1.27e6
Est-Q,1,1.47e6,1.56e6,1.21e6,1.27e6
CG30031 + deltaTry + gammaTry,1,1.75e6,1.77e6,1.21e6,1.36e6
Tre1,1,1.45e6,1.47e6,8.41e5,9.35e5
chb,1,1.40e6,1.51e6,1.07e6,1.24e6
CG10591,1,1.39e6,1.48e6,1.26e6,1.00e6
